Measured values from paper PMC11885506, “Evaluation of a non-animal toolbox informed by adverse outcome pathways for human inhalation safety” (Frontiers in Toxicology, 2025).

Test system: EpiAlveolar™ model
Test: Bioactivity exposure ratio (BER): lowest in vitro PoD of EpiAlveolar readouts / lower respiratory tract exposure estimate or Cmax
Set-up: species or system human

SMILES | minimum BER (therapeutic dose scenario, transcriptomics PoDs) | BER (therapeutic dose high-risk scenario, all readouts, all days)
CCCCc1oc2ccccc2c1C(=O)c1cc(I)c(OCCN(CC)CC)c(I)c1 [Amiodarone, Amiodarone hydrochloride] | 0.004 | 
COc1cccc2c1C(=O)c1c(O)c3c(c(O)c1C2=O)C[C@@](O)(C(=O)CO)C[C@@H]3O[C@H]1C[C@H](N)[C@H](O)[C@H](C)O1 [Doxorubicin, Doxorubicin hydrochloride] |  | 0.0005–0.2

Counter-ions that a name gives are not always drawn.
